# Source: the supplement of paper PMC9135407
# Values joined by “and” are separate entries in the source; they are usually repeats but may differ in a detail not shown here. Equal values may be shown once. Where a name gives a salt, the structure may show the parent alone. ± gives the standard deviation of the averaged measurements. This is one part of the list. Plates or batches differ in their baseline, so values are only roughly comparable.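 Assay uses culture-activated primary human stellate myofibroblasts; lipid droplet recovery indicates inactivation. Measured: proportion of Hoechst-counted cells over a plate-specific Bodipy cutoff, duplicate wells, DMSO and nortriptyline as per-plate negative and positive controls. A hit scores, control-normalized, above the plate's top-tenth-percentile nortriptyline wells or ranks among its three best wells. Final well concentrations not reported.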
# Test system: primary human hepatic stellate cells (donor 1)
# Assay: percent Bodipy-positive cells; higher = more lipid droplet accumulation
# Conditions: 48 h
# [1] = library stock concentration: 10 mM
# [2] = library stock concentration: 1 mM
# [3] = library stock concentration: 3.33 mM
# [4] = library stock concentration: 80 uM
# [5] = library stock concentration: 400 uM
# [6] = library stock concentration: 2 mM
# [7] = library stock concentration: 5.9 mM
# [8] = library stock concentration: 4.9 mM
compound,measurement,setting,value
CN1Cc2c(C(=O)OC(C)(C)C)ncn2-c2ccsc2C1=O,percent Bodipy-positive cells,[1],4.12 ± 1.2%
N#C/C(=C\c1ccc(O)c(O)c1)C(=O)Nc1ccccc1 [Tyrphostin AG 494],percent Bodipy-positive cells,[1],29.2 ± 6.7%
N#C/C(=C\c1ccc(O)c(O)c1)C(=O)Nc1ccccc1,percent Bodipy-positive cells,[1],5.25 ± 0.31%
CCCCCCCCCCCCCCCCC/C=C/C(=O)O [.DELTA.2-trans Eicosenoic Acid],percent Bodipy-positive cells,[2],9.46 ± 0.65%
O=C1NC(=O)C(c2ccccc2[N+](=O)[O-])=C1Nc1ccc(O)c(Cl)c1,percent Bodipy-positive cells,[3],12.8 ± 1.1%
CNc1cc2c(Nc3cccc(Br)c3)ncnc2cn1,percent Bodipy-positive cells,[3],12.9 ± 1.6%
same,percent Bodipy-positive cells,[1],12.9 ± 0.84%
CCCc1ncc(C[n+]2ccccc2C)c(N)n1 [Amprolium HCl],percent Bodipy-positive cells,[3],8.96 ± 3.4%
same,percent Bodipy-positive cells,[1],39 ± 2.4%
CCCc1ncc(C[n+]2ccccc2C)c(N)n1 [Amprolium hydrochloride],percent Bodipy-positive cells,,25.1 ± 5.1%
CCCc1ncc(C[n+]2ccccc2C)c(N)n1 [Amprolium],percent Bodipy-positive cells,library stock concentration: 6.3 mM,1.92 ± 0.9%
same,percent Bodipy-positive cells,[1],8.7 ± 0.29%
O=C1NC(=O)/C(=C/c2ccc3nccc(-c4ccncc4)c3c2)S1,percent Bodipy-positive cells,[4],12.6 ± 4.6%
same,percent Bodipy-positive cells,[5],13.5 ± 1.4%
same,percent Bodipy-positive cells,[6],8.81 ± 7.5%
same,percent Bodipy-positive cells,[3],3.55 ± 0.33%
same,percent Bodipy-positive cells,[1],14% and 7.69%
CC(CN1c2ccccc2Sc2ccccc21)N(C)C.Cl (centres undefined) [Promethazine hydrochloride],percent Bodipy-positive cells,[1],85.8 ± 2.1%
CN(C)C/C=C/C(=O)Nc1ccc(C(=O)Nc2cccc(Nc3ncc(Cl)c(-c4c[nH]c5ccccc45)n3)c2)cc1,percent Bodipy-positive cells,[4],83.4 ± 4.5%
same,percent Bodipy-positive cells,[5],88.8 ± 6.5%
same,percent Bodipy-positive cells,[6],99.48 ± 0.74%
same,percent Bodipy-positive cells,[1],87.51 ± 0.47%
O=C1NC(=O)C(c2cnc3ccccn23)=C1c1cn2c3c(cc(F)cc13)CN(C(=O)N1CCCCC1)CC2,percent Bodipy-positive cells,[5],55.5 ± 0.91%
same,percent Bodipy-positive cells,[6],51.7 ± 4.7%
C[C@@H](O)CN(CCN(C[C@@H](C)O)C[C@@H](C)O)C[C@@H](C)O,percent Bodipy-positive cells,[1],33.3 ± 4.8%
Cc1cn[nH]c1 [4-Methylpyrazole hydrochloride],percent Bodipy-positive cells,[1],31.1 ± 7%
Cc1cn[nH]c1 [Fomepizole hydrochloride],percent Bodipy-positive cells,library stock concentration: 16.9 mM,17 ± 8%
Cc1ccc(S(=O)(=O)c2ccc([N+](=O)[O-])o2)cc1,percent Bodipy-positive cells,[3],98.96 ± 0.63%
same,percent Bodipy-positive cells,[1],94.3 ± 2%
COc1cc2ncnc(Sc3nnc(C)s3)c2cc1OC,percent Bodipy-positive cells,[3],46.4 ± 1.2%
Nc1[nH]cnc2ncnc1-2 [Adenine],percent Bodipy-positive cells,[1],40.8 ± 0.66%
Nc1[nH]cnc2ncnc1-2 [Adenine HCl],percent Bodipy-positive cells,[3],11.2 ± 4.7%
same,percent Bodipy-positive cells,[1],19.6 ± 5.9%
CC(=O)Nc1cccc(-n2c(=O)n(C3CC3)c(=O)c3c(Nc4ccc(I)cc4F)n(C)c(=O)c(C)c32)c1,percent Bodipy-positive cells,[4],10.3 ± 4.2%
same,percent Bodipy-positive cells,[5],9.14 ± 4.2%
same,percent Bodipy-positive cells,[6],9.169 ± 0.016%
same,percent Bodipy-positive cells,[3],15 ± 12%
same,percent Bodipy-positive cells,[1],9.41% and 8.43%
C[C@@H](NCCCc1cccc(C(F)(F)F)c1)c1cccc2ccccc12 [Cinacalcet HCl],percent Bodipy-positive cells,[3],40.5 ± 17%
same,percent Bodipy-positive cells,[1],96.5 ± 1.5%
CC(=O)[C@@]1(O)CC[C@H]2[C@@H]3C=C(Cl)C4=CC(=O)[C@@H]5C[C@@H]5[C@]4(C)[C@H]3CC[C@@]21C [Cyproterone],percent Bodipy-positive cells,[1],47.9 ± 2.3%
CO[C@@H]1[C@@H](O[C@@H]2O[C@H](C)[C@@H](O[C@H]3C[C@@](C)(O)[C@@H](OC(=O)CC(C)C)[C@H](C)O3)[C@H](N(C)C)[C@H]2O)[C@@H](CC=O)C[C@@H](C)[C@@H](O)/C=C/C=C/C[C@@H](C)OC(=O)C[C@H]1O,percent Bodipy-positive cells,[1],18.7 ± 4%
O=C(c1cc2cc(O)ccc2[nH]1)c1cc2cc(O)ccc2[nH]1 [Flt-3 Inhibitor II],percent Bodipy-positive cells,[3],11 ± 1.1%
CC[N+](C)(C)c1cccc(O)c1 [Edrophonium chloride],percent Bodipy-positive cells,,21.7 ± 2.2%
same,percent Bodipy-positive cells,library stock concentration: 9.9 mM,10.6 ± 4.6%
same,percent Bodipy-positive cells,[1],56% and 37.7%
CO[C@@H](C(=O)N1Cc2[nH]nc(NC(=O)c3ccc(N4CCN(C)CC4)cc3)c2C1)c1ccccc1,percent Bodipy-positive cells,[1],89.9 ± 1.2%
NCCc1c[nH]cn1 [Histamine dihydrochloride],percent Bodipy-positive cells,library stock concentration: 10.9 mM,4.44 ± 1.7%
NCCc1c[nH]cn1 [Histamine 2HCl],percent Bodipy-positive cells,[3],13.1 ± 8.1%
same,percent Bodipy-positive cells,[1],27.7 ± 12%
NCCc1c[nH]cn1 [Histamine],percent Bodipy-positive cells,library stock concentration: 45 mM,15.6 ± 0.5%
CCCCCC(O)/C=C/C1C(O)CC(O)C1CCCCC(CC(=O)O)OC (stereo not drawn) [3-methoxy Prostaglandin F1.alpha.],percent Bodipy-positive cells,[2],18.6 ± 5.8%
CCCOc1cc(N)ccc1C(=O)OCCN(CC)CC [Propoxycaine hydrochloride],percent Bodipy-positive cells,,8.7 ± 6.2%
OC(Cn1cncn1)(Cn1cncn1)c1ccc(F)cc1F [Fluconazole],percent Bodipy-positive cells,[3],7.09 ± 3.8%
Cc1ncc(C[n+]2csc(CCO)c2C)c(N)n1 [Thiamine hydrochloride],percent Bodipy-positive cells,,21.4 ± 1.6%
Cc1ncc(C[n+]2csc(CCO)c2C)c(N)n1 [Thiamine],percent Bodipy-positive cells,[7],14.2 ± 3.8%
CC(C)c1c(C(=O)Nc2ccccc2)c(-c2ccccc2)c(-c2ccc(F)cc2)n1CC[C@@H](O)C[C@@H](O)CC(=O)O [Atorvastatin Calcium],percent Bodipy-positive cells,[3],30.3 ± 1.8%
same,percent Bodipy-positive cells,[1],44.2 ± 6.3%
CC(C)c1c(C(=O)Nc2ccccc2)c(-c2ccccc2)c(-c2ccc(F)cc2)n1CC[C@@H](O)C[C@@H](O)CC(=O)O [Atorvastatin calcium salt trihydrate],percent Bodipy-positive cells,[1],88 ± 6.6%
CC(C)c1c(C(=O)Nc2ccccc2)c(-c2ccccc2)c(-c2ccc(F)cc2)n1CC[C@@H](O)C[C@@H](O)CC(=O)O [Atorvastatin calcium],percent Bodipy-positive cells,[1],44.5 ± 8.7%
CC(=O)OCC(=O)[C@@]1(O)CC[C@H]2[C@@H]3CCC4=CC(=O)CC[C@]4(C)[C@H]3[C@@H](O)C[C@@]21C [Hydrocortisone 21-acetate],percent Bodipy-positive cells,[8],7.82 ± 4.9%
CC(=O)OCC(=O)[C@@]1(O)CC[C@H]2[C@@H]3CCC4=CC(=O)CC[C@]4(C)[C@H]3[C@@H](O)C[C@@]21C [Cortell],percent Bodipy-positive cells,[1],28 ± 5.1%
CC(=O)OCC(=O)[C@@]1(O)CC[C@H]2[C@@H]3CCC4=CC(=O)CC[C@]4(C)[C@H]3[C@@H](O)C[C@@]21C [Hydrocortisone acetate],percent Bodipy-positive cells,[8],2.21 ± 1.3%
same,percent Bodipy-positive cells,[1],8.88 ± 1.2%
CCN[C@H]1CN(CCCOC)S(=O)(=O)c2sc(S(N)(=O)=O)cc21 [Brinzolamide],percent Bodipy-positive cells,,32.8 ± 5.3%
same,percent Bodipy-positive cells,[3],8.78 ± 3.5%
same,percent Bodipy-positive cells,[1],23.5 ± 3%
CN1CCN(C2=Nc3cc(Cl)ccc3Nc3ccccc32)CC1 [Clozapine],percent Bodipy-positive cells,[1],91.25 ± 0.23%
NS(=O)(=O)c1cc(C2(O)NC(=O)c3ccccc32)ccc1Cl (centres undefined) [Chlorthalidone],percent Bodipy-positive cells,,31.7 ± 6.6%
same,percent Bodipy-positive cells,[7],2.26 ± 0.86%
same,percent Bodipy-positive cells,[1],6.86% and 28.9%
O=C(O)Cc1c2ccccc2n2c1[nH]c(=O)c1ccccc12,percent Bodipy-positive cells,[4],10.5 ± 0.92%
same,percent Bodipy-positive cells,[5],9.27 ± 1.4%
same,percent Bodipy-positive cells,[6],12.6 ± 3.4%
same,percent Bodipy-positive cells,[1],9 ± 6.5%
COc1ccc(-c2cc(=O)c3c(O)c(OC)c(OC)cc3o2)cc1O [Eupatorin],percent Bodipy-positive cells,[1],86.5 ± 3.3%
C=CC(N)CCC(=O)O (centres undefined) [Vigabatrin],percent Bodipy-positive cells,,31.4 ± 3.5%
same,percent Bodipy-positive cells,library stock concentration: 15.5 mM,1.65 ± 0.2%
C=CC(N)CCC(=O)O (centres undefined) [(?)-gamma-Vinyl GABA],percent Bodipy-positive cells,[1],11.9 ± 2.3%

# Exported bar-delimited: entries from further up.
compound | measurement | setting | value
CCCc1ncc(C[n+]2ccccc2C)c(N)n1 [Amprolium hydrochloride] | percent Bodipy-positive cells |  | 25.1 ± 5.1%
Cc1ccc(S(=O)(=O)c2ccc([N+](=O)[O-])o2)cc1 | percent Bodipy-positive cells | [3] | 98.96 ± 0.63%

# Some of the entries so far, with tabs.
compound	measurement	setting	value
CN(C)C/C=C/C(=O)Nc1ccc(C(=O)Nc2cccc(Nc3ncc(Cl)c(-c4c[nH]c5ccccc45)n3)c2)cc1	percent Bodipy-positive cells	[6]	99.48 ± 0.74%
same	percent Bodipy-positive cells	[1]	87.51 ± 0.47%
